Construct, isoform or probe ends are uncertain for at least one entry. For part of these data: A weaker result is weaker than the reference pair of the same experiment. For part of these data: At least one verdict rests on a figure or table, not on a statement of the authors.

We go through 2 sequences from PMC8106185.

The subject of data set [1] is LpCSP1 (Lingulodinium polyedra). Nature of the data set: EMSA. The note with it: 0.5-3 ug protein, EMSA: 20 uL of '2x binding buffer' (20 mM Tris-Cl pH 7.0, 20 mM MgCl2, 50 mM KCl, 10% glycerol, 1 mM DTT), 30 min, room temperature, 1 ng probe, recombinant protein, protein details: GST removed by thrombin, label: 5'-32P.
The subject of data set [2] is SkCSP1 (Symbiodinium kawagutii). The data set is described as follows: EMSA. The following applies: 0.5-3 ug protein, EMSA: 20 uL of '2x binding buffer' (20 mM Tris-Cl pH 7.0, 20 mM MgCl2, 50 mM KCl, 10% glycerol, 1 mM DTT), 30 min, room temperature, 1 ng probe, recombinant protein, protein details: GST removed by thrombin, label: 5'-32P. (In general: A gel shift assay detects complexes by their altered migration in electrophoresis.)

Data set [3] relates to SkCSP2 (Symbiodinium kawagutii). Nature of the data set: EMSA. The following applies: 0.5-3 ug protein, EMSA: 20 uL of '2x binding buffer' (20 mM Tris-Cl pH 7.0, 20 mM MgCl2, 50 mM KCl, 10% glycerol, 1 mM DTT), 30 min, room temperature, 1 ng probe, recombinant protein, protein details: GST removed by thrombin, label: 5'-32P.
The test system of data set [4] is SkCSP3 (Symbiodinium kawagutii). Nature of the data set: EMSA. The note with it: 0.5-3 ug protein, EMSA: 20 uL of '2x binding buffer' (20 mM Tris-Cl pH 7.0, 20 mM MgCl2, 50 mM KCl, 10% glycerol, 1 mM DTT), 30 min, room temperature, 1 ng probe, recombinant protein, protein details: GST removed by thrombin, label: 5'-32P.
Data set [5] deals with SkCSP1 (Symbiodinium kawagutii). The data set is described as follows: competition with a labelled probe. The following applies: cold dsDNA 1-80x vs ssDNA probe, band mostly stable, cold oligo sequence uncertain; EMSA: 20 uL of '2x binding buffer' (20 mM Tris-Cl pH 7.0, 20 mM MgCl2, 50 mM KCl, 10% glycerol, 1 mM DTT), 30 min, room temperature, 1 ng probe; recombinant protein; protein details: GST removed by thrombin; label: 5'-32P.

On to “GGCGCCCTCCCTCCGCCCTCCCTCA (double strand) [25 bp C-rich dsDNA]”, for which the binding result is “binds” in data set [1]; “binds” in data set [2]; “binds” in data set [3]; “binds” in data set [4]; “binds more weakly” in data set [5].

Take “TCCGCCCTCCCTCCCCCCGCCCTCCCTCCCCA [32 nt C-rich ssDNA]”: the binding result in data set [1] (single-stranded DNA), in data set [2] (single-stranded DNA), in data set [3] (single-stranded DNA) and in data set [4] (single-stranded DNA) was “binds” each time.
